Measurements taken from publication PMC4524557 (RSC advances, 2015).

Tested on: Escherichia coli ATCC 25922
Assay: MIC determination
Assay type: cell-based
Conditions: ATCC25922, read-out: MIC EC

With `CN[C@H](CC(C)C)C(=O)N[C@H]1C(=O)N[C@@H](CC(N)=O)C(=O)N[C@H]2C(=O)N[C@H]3C(=O)N[C@H](C(=O)N[C@H](C(=O)O)c4cc(O)cc(O)c4-c4cc3ccc4O)[C@H](O)c3ccc(c(Cl)c3)Oc3cc2cc(c3O[C@@H]2O[C@H](CO)[C@@H](O)[C@H](O)[C@H]2O[C@H]2C[C@](C)(N)[C@H](O)[C@H](C)O2)Oc2ccc(cc2Cl)[C@H]1O` [Vancomycin] the MIC was over 25 µM.
